Test results: patent US10912818B2, “Use of microorganisms for the prevention and treatment of intestinal diseases” (Ludwig Stocker Hofpfisterei GmbH, priority 2013, dated 2021)
At least one structure is not confirmed: it was looked up by name or label, or the drawing left a doubt.

System: corpus circular muscle preparations
Assay: Motility: contractile force of corpus circular muscle preparations in organ bath
Assay type: cell-based, guinea pig
Conditions: acetylcholine 2.5 μM or extracts at 0.02%

In the case of `CC(=O)OCC[N+](C)(C)C` [acetylcholine], the “Muscle tone change (muscle contraction stimulation)” value is reported as “Increase in tone was immediately observed”.
